Laboratory results: patent EP3002287B1, “Thiochromeno[2,3-c]quinolin-12-one derivatives and their use as topoisomerase inhibitors” (National Defense Medical Center, priority 2014, dated 2016)

System: 60 cell lines
Assay: NCI in vitro 60-cell drug screen (SRB assay), whole panel statistics
Conditions: 10^-5 molar concentration, 48 hours; for Growth percent, Delta: delta over the cell panel; for Growth percent, Range: range over the cell panel

Compound	Growth percent, Delta	Growth percent, Range
O=C(O)c1c(Sc2ccc(Cl)cc2)c(O)nc2ccccc12 [Compound 2, 3-((4-Chlorophenyl)thio)-2-hydroxyquinoline-4-carboxylic acid]	33.20%	55.29%
O=c1c2ccc(Cl)cc2sc2c(Cl)nc3ccccc3c12 [Compound 3, 6,9-Dichloro-12H-thiochromeno[2,3-c]quinolin-12-one]	32.05%	57.22%
O=c1c2cc(Cl)ccc2sc2c(O)nc3ccccc3c12 [Compound 4, 10-Chloro-6-hydroxy-12H-thiochromeno[2,3-c]quinolin-12-one]	30.54%	50.31%
COc1nc2ccccc2c2c(=O)c3cc(Cl)ccc3sc12 [Compound 5, 10-Chloro-6-methoxy-12H-thiochromeno[2,3-c]quinolin-12-one]	39.82%	61.02%
CN(C)c1nc2ccccc2c2c(=O)c3cc(Cl)ccc3sc12 [Compound 6, 10-Chloro-6-dimethylamino-12H-thiochromeno[2,3-c]quinolin-12-one]	65.30%	93.93%
CN1CCN(c2nc3ccccc3c3c(=O)c4cc(Cl)ccc4sc23)CC1 [Compound 8, 10-Chloro-6-(4-methylpiperazin-1-yl)-12H-thiochromeno[2,3-c]q uinolin-12-one]	68.64%	92.74%
O=c1c2cc(Cl)ccc2sc2c(N3CCN(CCO)CC3)nc3ccccc3c12 [Compound 10, 10-Chloro-6-(4-(2-hydroxyethyl)piperazin-1-yl)-12H-thiochrom eno[2,3-c]quinolin-12one]	48.59%	83.73%
O=c1c2cc(Cl)ccc2sc2c(N3CCN(Cc4ccccc4)CC3)nc3ccccc3c12 [Compound 11, 6-(4-Benzylpiperazin-1-yl)-10-chloro-12H-thiochromeno[2,3-c]q uinolin-12-one]	31.28%	60.08%
O=c1c2cc(Cl)ccc2sc2c(N3CCN(c4ccccc4)CC3)nc3ccccc3c12 [Compound 12, 10-Chloro-6-(4-phenylpiperazin-1-yl)-12H-thiochromeno[2,3-c] quinolin-12-one]	35.45%	60.10%
O=c1c2cc(Cl)ccc2sc2c(N3CCOCC3)nc3ccccc3c12 [Compound 13, 10-Chloro-6-morpholino-12H-thiochromeno[2,3-c]quinolin-12-one]	50.85%	79.17%
